Results are given in words; binding and its absence hold for the method and conditions named. Some entries that bind do so weakly or less than the wild type.
Target: T1, purified caspase-14 from human cornified cells (heterodimer of 17 KDa large subunit and 11 KDa small subunit) (human) (UniProt P31944)
T1 sequence (looked up) 1: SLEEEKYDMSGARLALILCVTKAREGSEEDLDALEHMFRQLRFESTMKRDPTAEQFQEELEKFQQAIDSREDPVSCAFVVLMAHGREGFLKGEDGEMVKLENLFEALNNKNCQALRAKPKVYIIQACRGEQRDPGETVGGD
T1 sequence (looked up) 2: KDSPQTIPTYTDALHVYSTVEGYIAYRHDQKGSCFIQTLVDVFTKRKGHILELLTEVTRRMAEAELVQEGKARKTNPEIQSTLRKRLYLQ
Assay: inferred from lasting inhibition of ICAD decomposition by caspase-14 (Western blot)

- binding: binds
B1: recombinant squamous cell carcinoma antigen 1 (SCCA-1) (protein, human, UniProt P29508 1-390, looked up)
chain: MNSLSEANTKFMFDLFQQFRKSKENNIFYSPISITSALGMVLLGAKDNTAQQIKKVLHFDQVTENTTGKAATYHVDRSGNVHHQFQKLLTEFNKSTDAYELKIANKLFGEKTYLFLQEYLDAIKKFYQTSVESVDFANAPEESRKKINSWVESQTNEKIKNLIPEGNIGSNTTLVLVNAIYFKGQWEKKFNKEDTKEEKFWPNKNTYKSIQMMRQYTSFHFASLEDVQAKVLEIPYKGKDLSMIVLLPNEIDGLQKLEEKLTAEKLMEWTSLQNMRETRVDLHLPRFKVEESYDLKDTLRTMGMVDIFNGDADLSGMTGSRGLVLSGVLHKAFVEVTEEGAEAAAATAVVGFGSSPTSTNEEFHCNHPFLFFIRQNKTNSILFYGRFSSP

— patent US20090123572A1
